# PubChem BioAssay AID1224830 – NIAID, 2016
# Screen: 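Host factors that control LPS-induced TNF expression in human macrophages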 (primary screen)
# Cells: human THP-1 monocytic leukaemia cells, TNF dual-luciferase reporter clone, PMA-differentiated to macrophage-like cells
# Reagent: siRNA pool against human genes, 50 nM
# Time to read-out: LPS for 4 h, given about 3 days after siRNA transfection
# Conditions: bacterial LPS (TLR4 ligand), 10 ng/ml
# Measurement: 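Ratio of firefly to renilla light, scaled to the plate median and expressed as a robust z-score per replicate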
# Direction: TNF reporter robust z-score: higher = stronger TNF reporter response to LPS
# Hit rule: 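a well is active when its z-score exceeds 2.8 or falls below -1.5; control wells carry no call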
# In all, the deposit lists about 18,000 reagents; this is a random part of them. About 2,900 of all reagents (16%) were called active. 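Calls are made per well; low scores hint the gene aids the LPS response, high scores that it dampens it.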 Unmarked entries are inactive. Repeated entries: four replicate wells of each siRNA pool.
The first 7 records, ahead of the listing:
TNF reporter robust z-score,target gene
-1.36,PNMT (phenylethanolamine N-methyltransferase)
-0.04,PNMT (phenylethanolamine N-methyltransferase)
0.63,PNMT (phenylethanolamine N-methyltransferase)
0.8,PNMT (phenylethanolamine N-methyltransferase)
1.23,"BPNT1 (3'(2'), 5'-bisphosphate nucleotidase 1)"
-0.17,"BPNT1 (3'(2'), 5'-bisphosphate nucleotidase 1)"
0.85,"BPNT1 (3'(2'), 5'-bisphosphate nucleotidase 1)"

The listing, from the first entry:
TNF reporter robust z-score,target gene
-1.36,PNMT (phenylethanolamine N-methyltransferase)
-0.04,PNMT (phenylethanolamine N-methyltransferase)
0.63,PNMT (phenylethanolamine N-methyltransferase)
0.8,PNMT (phenylethanolamine N-methyltransferase)
1.23,"BPNT1 (3'(2'), 5'-bisphosphate nucleotidase 1)"
-0.17,"BPNT1 (3'(2'), 5'-bisphosphate nucleotidase 1)"
0.85,"BPNT1 (3'(2'), 5'-bisphosphate nucleotidase 1)"
-0.15,"BPNT1 (3'(2'), 5'-bisphosphate nucleotidase 1)"
-0.31,HPS6 (HPS6 biogenesis of lysosomal organelles complex 2 subunit 3)
-0.6,HPS6 (HPS6 biogenesis of lysosomal organelles complex 2 subunit 3)
-0.78,HPS6 (HPS6 biogenesis of lysosomal organelles complex 2 subunit 3)
1.22,HPS6 (HPS6 biogenesis of lysosomal organelles complex 2 subunit 3)
0.27,TENT5A (terminal nucleotidyltransferase 5A)
-0.14,TENT5A (terminal nucleotidyltransferase 5A)
1.4,TENT5A (terminal nucleotidyltransferase 5A)
1.44,TENT5A (terminal nucleotidyltransferase 5A)
1,MOGAT1 (monoacylglycerol O-acyltransferase 1)
0.99,MOGAT1 (monoacylglycerol O-acyltransferase 1)
1.05,MOGAT1 (monoacylglycerol O-acyltransferase 1)
1.59,MOGAT1 (monoacylglycerol O-acyltransferase 1)
0,EPB42 (erythrocyte membrane protein band 4.2)
1.52,EPB42 (erythrocyte membrane protein band 4.2)
0.01,EPB42 (erythrocyte membrane protein band 4.2)
0.4,EPB42 (erythrocyte membrane protein band 4.2)
1.62,RNF39 (ring finger protein 39)
1.49,RNF39 (ring finger protein 39)
-0.92,RNF39 (ring finger protein 39)
-0.84,RNF39 (ring finger protein 39)
0.91,THRSP (thyroid hormone responsive)
-0.12,THRSP (thyroid hormone responsive)
0.05,THRSP (thyroid hormone responsive)
0.38,THRSP (thyroid hormone responsive)
1.39,"MYC (MYC proto-oncogene, bHLH transcription factor)"
1.58,"MYC (MYC proto-oncogene, bHLH transcription factor)"
0.96,"MYC (MYC proto-oncogene, bHLH transcription factor)"
1.16,"MYC (MYC proto-oncogene, bHLH transcription factor)"
0.51,CDKL5 (cyclin dependent kinase like 5)
-0.63,CDKL5 (cyclin dependent kinase like 5)
0.11,CDKL5 (cyclin dependent kinase like 5)
-1.38,CDKL5 (cyclin dependent kinase like 5)
-0.99,LAPTM4B (lysosomal protein transmembrane 4 beta)
-0.03,LAPTM4B (lysosomal protein transmembrane 4 beta)
-1.01,LAPTM4B (lysosomal protein transmembrane 4 beta)
-1.09,LAPTM4B (lysosomal protein transmembrane 4 beta)
0.14,SPAG17 (sperm associated antigen 17)
1.36,SPAG17 (sperm associated antigen 17)
1.15,SPAG17 (sperm associated antigen 17)
1.03,SPAG17 (sperm associated antigen 17)
-0.46,HHATL (hedgehog acyltransferase like)
0.35,HHATL (hedgehog acyltransferase like)
-0.97,HHATL (hedgehog acyltransferase like)
1.13,HHATL (hedgehog acyltransferase like)
-0.1,CIB2 (calcium and integrin binding family member 2)
-0.54,CIB2 (calcium and integrin binding family member 2)
-0.24,CIB2 (calcium and integrin binding family member 2)
0.09,CIB2 (calcium and integrin binding family member 2)
1.96,IRF2 (interferon regulatory factor 2)
1.61,IRF2 (interferon regulatory factor 2)
-1.47,IRF2 (interferon regulatory factor 2)
0.88,IRF2 (interferon regulatory factor 2)
1.43,SAMD4A (sterile alpha motif domain containing 4A)
2.1,SAMD4A (sterile alpha motif domain containing 4A)
0.48,SAMD4A (sterile alpha motif domain containing 4A)
0.25,SAMD4A (sterile alpha motif domain containing 4A)
-0.61,SP4 (Sp4 transcription factor)
-0.1,SP4 (Sp4 transcription factor)
-0.39,SP4 (Sp4 transcription factor)
-0.11,SP4 (Sp4 transcription factor)
0.45,DGKD (diacylglycerol kinase delta)
1.61,DGKD (diacylglycerol kinase delta)
1.38,DGKD (diacylglycerol kinase delta)
0.63,DGKD (diacylglycerol kinase delta)
0.64,CABP4 (calcium binding protein 4)
1.04,CABP4 (calcium binding protein 4)
0.43,CABP4 (calcium binding protein 4)
0.71,CABP4 (calcium binding protein 4)
